# The supplement of paper PMC10849652
# Sequences of proteins named here, by UniProt entry; tags and fusion partners are left off. A change or cut given only in a name is not applied to a line headed by its entry.
# UniProt O95295: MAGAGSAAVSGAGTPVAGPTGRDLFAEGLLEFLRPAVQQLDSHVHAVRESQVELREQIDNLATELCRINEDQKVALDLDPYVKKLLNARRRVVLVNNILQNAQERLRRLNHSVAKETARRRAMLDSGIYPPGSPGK
# UniProt Q969G3, whole entry, looked up: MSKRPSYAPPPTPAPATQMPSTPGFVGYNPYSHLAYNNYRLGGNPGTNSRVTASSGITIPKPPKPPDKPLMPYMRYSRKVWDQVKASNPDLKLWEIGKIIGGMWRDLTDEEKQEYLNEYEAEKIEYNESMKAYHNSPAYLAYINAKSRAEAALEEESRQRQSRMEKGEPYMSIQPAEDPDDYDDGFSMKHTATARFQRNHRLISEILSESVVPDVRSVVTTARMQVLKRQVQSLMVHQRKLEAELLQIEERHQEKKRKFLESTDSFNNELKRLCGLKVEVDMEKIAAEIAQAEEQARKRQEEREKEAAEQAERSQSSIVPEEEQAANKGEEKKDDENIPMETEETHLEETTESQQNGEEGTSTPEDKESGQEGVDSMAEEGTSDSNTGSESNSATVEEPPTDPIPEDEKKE
# UniProt O60749: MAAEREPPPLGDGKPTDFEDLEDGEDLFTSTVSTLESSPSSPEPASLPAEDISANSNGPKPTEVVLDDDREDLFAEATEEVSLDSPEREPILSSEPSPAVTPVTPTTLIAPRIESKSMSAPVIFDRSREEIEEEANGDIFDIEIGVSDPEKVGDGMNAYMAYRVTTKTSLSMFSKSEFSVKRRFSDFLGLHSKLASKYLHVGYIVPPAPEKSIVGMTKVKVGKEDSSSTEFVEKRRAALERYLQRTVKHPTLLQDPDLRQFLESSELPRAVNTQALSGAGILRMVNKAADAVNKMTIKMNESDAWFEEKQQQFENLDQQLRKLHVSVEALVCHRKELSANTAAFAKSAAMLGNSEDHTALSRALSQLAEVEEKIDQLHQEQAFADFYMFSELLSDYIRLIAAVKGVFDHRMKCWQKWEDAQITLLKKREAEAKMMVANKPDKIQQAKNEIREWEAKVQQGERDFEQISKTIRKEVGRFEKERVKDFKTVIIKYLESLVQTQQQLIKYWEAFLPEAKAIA
# UniProt O00193: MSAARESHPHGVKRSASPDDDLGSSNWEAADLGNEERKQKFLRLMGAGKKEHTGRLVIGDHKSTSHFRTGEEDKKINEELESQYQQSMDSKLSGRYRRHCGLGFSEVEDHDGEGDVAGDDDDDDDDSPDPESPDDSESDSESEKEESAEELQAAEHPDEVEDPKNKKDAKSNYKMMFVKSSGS
# UniProt O95149, whole entry, looked up: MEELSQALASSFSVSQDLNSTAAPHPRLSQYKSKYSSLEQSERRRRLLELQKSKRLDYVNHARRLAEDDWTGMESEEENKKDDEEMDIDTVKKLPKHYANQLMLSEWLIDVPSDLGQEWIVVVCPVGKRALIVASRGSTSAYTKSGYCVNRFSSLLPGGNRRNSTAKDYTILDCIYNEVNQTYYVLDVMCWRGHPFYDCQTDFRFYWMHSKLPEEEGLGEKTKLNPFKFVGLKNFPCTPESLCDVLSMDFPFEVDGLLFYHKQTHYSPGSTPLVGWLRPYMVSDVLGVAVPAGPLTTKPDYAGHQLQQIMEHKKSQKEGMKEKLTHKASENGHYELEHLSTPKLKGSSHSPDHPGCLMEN
# UniProt A6NHR9: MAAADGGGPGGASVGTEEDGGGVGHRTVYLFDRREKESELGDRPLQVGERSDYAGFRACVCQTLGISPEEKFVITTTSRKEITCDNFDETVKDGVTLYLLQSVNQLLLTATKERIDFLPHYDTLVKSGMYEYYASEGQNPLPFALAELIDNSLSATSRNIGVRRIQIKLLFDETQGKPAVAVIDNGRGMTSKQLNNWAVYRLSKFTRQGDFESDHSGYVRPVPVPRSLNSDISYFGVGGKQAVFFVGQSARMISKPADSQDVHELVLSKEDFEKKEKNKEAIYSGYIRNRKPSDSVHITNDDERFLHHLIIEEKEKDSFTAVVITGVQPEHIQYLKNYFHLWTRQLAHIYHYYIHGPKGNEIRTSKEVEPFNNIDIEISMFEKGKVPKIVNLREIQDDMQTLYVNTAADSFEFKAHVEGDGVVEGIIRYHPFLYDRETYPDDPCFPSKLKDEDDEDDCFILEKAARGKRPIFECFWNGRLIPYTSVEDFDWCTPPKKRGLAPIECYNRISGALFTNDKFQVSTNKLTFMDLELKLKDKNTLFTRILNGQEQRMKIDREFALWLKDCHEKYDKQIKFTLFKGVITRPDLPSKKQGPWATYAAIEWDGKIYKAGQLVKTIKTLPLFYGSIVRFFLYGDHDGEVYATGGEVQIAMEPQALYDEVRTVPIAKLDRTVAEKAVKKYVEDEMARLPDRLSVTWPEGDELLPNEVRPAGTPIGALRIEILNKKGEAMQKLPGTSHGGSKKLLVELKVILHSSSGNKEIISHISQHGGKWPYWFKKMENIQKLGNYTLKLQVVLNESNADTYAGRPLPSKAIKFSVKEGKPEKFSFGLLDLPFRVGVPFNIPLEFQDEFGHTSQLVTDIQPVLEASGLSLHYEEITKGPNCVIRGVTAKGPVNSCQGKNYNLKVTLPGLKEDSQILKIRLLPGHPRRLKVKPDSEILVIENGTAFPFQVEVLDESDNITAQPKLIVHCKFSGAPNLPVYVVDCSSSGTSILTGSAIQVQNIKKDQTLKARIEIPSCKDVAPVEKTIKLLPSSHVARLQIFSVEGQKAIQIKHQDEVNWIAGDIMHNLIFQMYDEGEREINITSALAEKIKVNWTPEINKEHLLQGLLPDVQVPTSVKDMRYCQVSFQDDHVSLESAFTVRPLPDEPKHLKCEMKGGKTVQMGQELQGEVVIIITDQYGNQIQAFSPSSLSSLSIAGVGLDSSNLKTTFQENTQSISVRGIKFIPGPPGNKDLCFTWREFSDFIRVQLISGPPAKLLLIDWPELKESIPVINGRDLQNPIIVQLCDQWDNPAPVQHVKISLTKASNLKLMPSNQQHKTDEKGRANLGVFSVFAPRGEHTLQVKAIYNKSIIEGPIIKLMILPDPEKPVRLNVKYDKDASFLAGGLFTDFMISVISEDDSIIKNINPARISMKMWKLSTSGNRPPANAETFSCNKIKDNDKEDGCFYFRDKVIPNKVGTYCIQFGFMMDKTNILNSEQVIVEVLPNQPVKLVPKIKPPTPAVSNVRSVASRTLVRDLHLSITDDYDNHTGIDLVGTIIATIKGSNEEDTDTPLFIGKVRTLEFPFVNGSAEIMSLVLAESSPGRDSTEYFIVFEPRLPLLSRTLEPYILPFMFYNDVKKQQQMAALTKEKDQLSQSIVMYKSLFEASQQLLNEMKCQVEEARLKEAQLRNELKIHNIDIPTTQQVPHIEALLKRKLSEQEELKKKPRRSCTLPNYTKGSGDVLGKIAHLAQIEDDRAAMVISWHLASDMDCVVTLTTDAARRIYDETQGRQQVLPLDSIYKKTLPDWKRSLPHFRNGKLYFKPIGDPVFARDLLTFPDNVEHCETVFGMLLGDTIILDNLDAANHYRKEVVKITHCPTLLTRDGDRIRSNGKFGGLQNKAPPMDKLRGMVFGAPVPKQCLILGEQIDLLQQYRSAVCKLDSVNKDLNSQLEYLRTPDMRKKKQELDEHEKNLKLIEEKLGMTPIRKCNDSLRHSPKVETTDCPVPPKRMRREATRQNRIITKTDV
# UniProt P08047, whole entry, looked up: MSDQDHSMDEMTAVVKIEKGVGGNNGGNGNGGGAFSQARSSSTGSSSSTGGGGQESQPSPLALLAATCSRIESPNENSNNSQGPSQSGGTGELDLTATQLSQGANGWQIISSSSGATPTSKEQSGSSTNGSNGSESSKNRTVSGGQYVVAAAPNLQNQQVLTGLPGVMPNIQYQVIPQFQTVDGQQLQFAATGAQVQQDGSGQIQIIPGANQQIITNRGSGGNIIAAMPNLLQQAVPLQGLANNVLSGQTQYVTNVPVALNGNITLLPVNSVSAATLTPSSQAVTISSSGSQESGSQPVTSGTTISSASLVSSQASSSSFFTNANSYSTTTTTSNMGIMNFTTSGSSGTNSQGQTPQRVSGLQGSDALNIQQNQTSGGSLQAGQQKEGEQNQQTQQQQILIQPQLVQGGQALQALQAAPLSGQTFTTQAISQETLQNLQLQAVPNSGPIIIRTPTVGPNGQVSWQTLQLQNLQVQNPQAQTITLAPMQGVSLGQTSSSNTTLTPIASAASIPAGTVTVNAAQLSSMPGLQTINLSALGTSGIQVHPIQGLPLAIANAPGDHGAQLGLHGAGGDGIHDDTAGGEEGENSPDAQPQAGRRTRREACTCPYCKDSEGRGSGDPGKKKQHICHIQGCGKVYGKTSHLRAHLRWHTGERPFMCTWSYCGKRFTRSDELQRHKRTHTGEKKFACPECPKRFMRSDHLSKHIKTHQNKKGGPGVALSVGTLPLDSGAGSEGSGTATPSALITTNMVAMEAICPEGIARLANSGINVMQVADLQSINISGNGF
# UniProt O15198: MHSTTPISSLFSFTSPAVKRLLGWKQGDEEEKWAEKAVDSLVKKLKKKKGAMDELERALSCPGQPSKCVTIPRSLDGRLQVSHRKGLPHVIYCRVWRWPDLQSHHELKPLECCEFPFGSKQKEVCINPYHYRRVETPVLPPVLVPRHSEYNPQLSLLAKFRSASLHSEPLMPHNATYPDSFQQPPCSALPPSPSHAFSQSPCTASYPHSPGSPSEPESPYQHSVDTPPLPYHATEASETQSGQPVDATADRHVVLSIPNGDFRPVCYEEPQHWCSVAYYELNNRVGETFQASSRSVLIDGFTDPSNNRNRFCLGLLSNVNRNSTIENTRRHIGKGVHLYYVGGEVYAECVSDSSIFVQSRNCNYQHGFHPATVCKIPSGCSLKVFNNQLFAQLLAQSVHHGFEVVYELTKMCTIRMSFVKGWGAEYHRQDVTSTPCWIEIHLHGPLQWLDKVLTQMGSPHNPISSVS
# UniProt P62318, whole entry, looked up: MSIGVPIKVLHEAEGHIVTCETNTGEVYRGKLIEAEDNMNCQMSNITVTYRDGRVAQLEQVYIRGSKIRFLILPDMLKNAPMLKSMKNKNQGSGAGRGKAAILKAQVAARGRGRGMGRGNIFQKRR
# UniProt P51531, whole entry, looked up: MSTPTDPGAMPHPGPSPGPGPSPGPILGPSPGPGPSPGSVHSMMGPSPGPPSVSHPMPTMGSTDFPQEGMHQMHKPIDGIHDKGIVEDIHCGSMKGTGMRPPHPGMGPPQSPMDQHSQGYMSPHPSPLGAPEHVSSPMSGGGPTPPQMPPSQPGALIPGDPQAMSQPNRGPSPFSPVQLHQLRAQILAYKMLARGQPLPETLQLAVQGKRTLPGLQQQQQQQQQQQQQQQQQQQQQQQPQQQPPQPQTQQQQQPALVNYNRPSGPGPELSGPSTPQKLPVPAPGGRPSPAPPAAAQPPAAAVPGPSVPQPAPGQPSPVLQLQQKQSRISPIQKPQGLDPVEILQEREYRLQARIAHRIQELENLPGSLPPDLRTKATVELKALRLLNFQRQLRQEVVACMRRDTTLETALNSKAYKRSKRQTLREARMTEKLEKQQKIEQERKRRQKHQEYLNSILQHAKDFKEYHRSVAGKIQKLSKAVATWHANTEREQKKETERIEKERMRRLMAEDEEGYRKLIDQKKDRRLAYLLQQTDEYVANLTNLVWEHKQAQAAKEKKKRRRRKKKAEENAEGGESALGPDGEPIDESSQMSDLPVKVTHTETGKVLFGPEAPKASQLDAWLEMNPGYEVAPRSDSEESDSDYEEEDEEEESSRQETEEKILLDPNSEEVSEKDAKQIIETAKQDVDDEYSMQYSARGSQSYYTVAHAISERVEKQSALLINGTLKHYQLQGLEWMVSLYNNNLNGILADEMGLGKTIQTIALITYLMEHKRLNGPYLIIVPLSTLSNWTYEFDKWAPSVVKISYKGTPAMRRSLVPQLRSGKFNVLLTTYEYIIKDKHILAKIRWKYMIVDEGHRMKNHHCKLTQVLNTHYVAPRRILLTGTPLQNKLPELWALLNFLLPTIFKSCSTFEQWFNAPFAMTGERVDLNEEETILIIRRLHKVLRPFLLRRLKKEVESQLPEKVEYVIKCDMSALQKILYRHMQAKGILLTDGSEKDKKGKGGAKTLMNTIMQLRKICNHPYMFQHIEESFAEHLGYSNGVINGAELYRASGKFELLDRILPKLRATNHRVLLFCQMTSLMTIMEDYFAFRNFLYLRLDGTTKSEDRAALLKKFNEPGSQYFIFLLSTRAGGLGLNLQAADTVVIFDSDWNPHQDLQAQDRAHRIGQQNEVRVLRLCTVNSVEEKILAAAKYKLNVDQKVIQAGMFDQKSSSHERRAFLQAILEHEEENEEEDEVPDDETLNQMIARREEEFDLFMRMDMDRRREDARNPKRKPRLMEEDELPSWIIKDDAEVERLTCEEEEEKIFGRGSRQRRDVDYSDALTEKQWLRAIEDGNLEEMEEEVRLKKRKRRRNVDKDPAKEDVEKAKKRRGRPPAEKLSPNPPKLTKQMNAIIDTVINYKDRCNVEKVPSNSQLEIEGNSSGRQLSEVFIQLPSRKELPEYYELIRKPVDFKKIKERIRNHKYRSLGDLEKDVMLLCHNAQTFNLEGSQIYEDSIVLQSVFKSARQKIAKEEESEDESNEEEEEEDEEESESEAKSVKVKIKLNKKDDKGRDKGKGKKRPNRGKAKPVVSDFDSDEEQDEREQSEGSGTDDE
# The other results are listed elsewhere or left out.
# Tests used:
# Assay in all cases: log2 fold change, soluble protein after heating vs DMSO (PISA); higher = thermal stabilisation; K562 cells, 10 uM, 30 min; active = over 0.2 and 3.5 SD of the protein, either way, in both replicates (recomputed)
# [1] = compound: CC[C@@H]1C(=O)N(C)c2cnc(Nc3ccc(C(=O)NC4CCN(C)CC4)cc3OC)nc2N1C1CCCC1
# Method in brief: (§1)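 For each measurement, 10 μM compound was applied for 30 min to K562 cells at 2×10^6 cells/mL. Aliquots were heated for 3 min across 48°C-58°C, pooled, and extracted in PBS with 0.5% NP-40 at 4°C; the supernatant after 21,000xg for 90 min was soluble protein. This was quantified by TMTpro 16plex LC-MS/MS with channel sums equalised, and thermal stability was reported relative to control samples from duplicates, on a log2 fold-change scale.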
# volasertib = compound: CC[C@@H]1C(=O)N(C)c2cnc(Nc3ccc(C(=O)N[C@H]4CC[C@H](N5CCN(CC6CC6)CC5)CC4)cc3OC)nc2N1C(C)C [volasertib]
# Method in brief: as §1
# [2] = compound: CC[C@H](C)N1C=C(C2=C(C=C(C=C21)C3=CN=C(C=C3)N4CCNCC4)C(=O)NCC5=C(C=C(NC5=O)C)C)C
# Method in brief: as §1
# epoxomicin = compound: CC[C@H](C)[C@@H](C(=O)N[C@@H]([C@@H](C)O)C(=O)N[C@@H](CC(C)C)C(=O)[C@]1(CO1)C)NC(=O)[C@H]([C@@H](C)CC)N(C)C(=O)C [epoxomicin]
# Method in brief: as §1
# [3] = compound: CCn1c(C(=O)N(C2CC2)C2CC2)cc2c3c(ncn3C)c(Nc3cc(C)n(C)n3)nc21
# Method in brief: as §1
# [4] = compound: CCn1cc(-c2ccnc3[nH]c(-c4cccc(CN(C)C)c4)cc23)c(-c2ccc(NC(=O)N(C)C)cc2)n1
# Method in brief: as §1
# [5] = compound: CN(C)CC(=O)Nc1ccc2[nH]c(=O)c3ccccc3c2c1
# Method in brief: as §1
# rosiglitazone = compound: CN(CCOC1=CC=C(C=C1)C[C@H]2C(=O)NC(=O)S2)C3=CC=CC=N3 (racemic) [rosiglitazone]
# Method in brief: as §1
# [6] = compound: CN1C2=C(C3=C1C(=O)N(N=C3)CC4=CC(=CC=C4)N)SC(=C2)S(=O)C
# Method in brief: as §1
# [7] = compound: CN1CCC(CNc2ccc3ncc(-c4cccc(OC(F)(F)F)c4)n3n2)CC1
# Method in brief: as §1
Target,log2 fold change [1],log2 fold change (volasertib),log2 fold change [2],log2 fold change (epoxomicin),log2 fold change [3],log2 fold change [4],log2 fold change [5],log2 fold change (rosiglitazone),log2 fold change [6],log2 fold change [7]
SON isoform 9 (UniProt P18583),inactive: 0.109,inactive: -0.251,inactive: 0.067,inactive: -0.173,inactive: 0.054,inactive: 0.084,inactive: 0.017,inactive: 0.114,inactive: 0.188,inactive: 0.209
"SMIM26, A0A096LP01",inactive: -0.007,inactive: -0.061,inactive: 0.076,inactive: 0.01,inactive: 0.011,inactive: -0.078,inactive: -0.033,inactive: 0.035,inactive: 0.051,inactive: -0.058
SNAPIN (UniProt O95295),inactive: -0.021,inactive: -0.091,inactive: 0.019,inactive: 0.042,inactive: -0.02,inactive: -0.126,inactive: 0.019,inactive: 0.07,inactive: 0.009,inactive: 0.021
SMAP2 (UniProt Q8WU79),inactive: -0.054,active: -0.3,inactive: 0.131,inactive: 0.056,–,inactive: -0.009,inactive: 0.008,–,inactive: -0.021,inactive: 0.015
SOAT1 (UniProt P35610),inactive: -0.017,inactive: 0.053,inactive: -0.094,inactive: 0.029,–,inactive: 0.013,inactive: -0.04,–,inactive: -0.051,inactive: -0.09
SLC7A6 (UniProt Q92536),inactive: 0.048,inactive: 0.042,inactive: -0.099,inactive: 0.211,–,inactive: -0.018,inactive: 0.04,–,inactive: -0.036,inactive: 0.122
SLK isoform 2 (UniProt Q9H2G2),inactive: -0.095,inactive: -0.161,inactive: 0.05,inactive: 0.052,–,active: -0.271,inactive: -0.016,–,inactive: -0.022,inactive: -0.152
SMARCAD1 isoform 2 (UniProt Q9H4L7),inactive: -0.085,active: -0.378,inactive: 0.057,inactive: 0.046,–,inactive: -0.1,inactive: 0.04,–,inactive: -0.037,inactive: -0.1
SMARCE1 (UniProt Q969G3),inactive: -0.006,inactive: -0.125,inactive: 0.087,inactive: -0.033,–,inactive: 0.053,inactive: -0.036,–,inactive: 0.058,inactive: -0.045
SNX2 (UniProt O60749),inactive: -0.129,inactive: -0.053,inactive: 0.093,inactive: 0.026,–,inactive: -0.08,inactive: 0.005,–,inactive: -0.003,active: -0.332
SLC7A6OS (UniProt Q96CW6),inactive: -0.027,inactive: -0.084,inactive: -0.042,inactive: 0.01,–,inactive: -0.038,inactive: 0.004,–,inactive: -0.05,inactive: 0.055
SP100 isoform 4 (UniProt P23497),inactive: -0.021,inactive: -0.065,inactive: 0.012,inactive: -0.006,–,inactive: 0.056,inactive: -0.045,–,inactive: -0.059,inactive: -0.064
SNX9 (UniProt Q9Y5X1),inactive: -0.125,active: -0.309,inactive: 0.04,inactive: -0.02,–,inactive: -0.021,inactive: -0.006,–,inactive: 0.009,inactive: -0.137
SNW1 (UniProt Q13573),inactive: 0.094,inactive: 0.078,inactive: -0.052,inactive: -0.012,–,inactive: 0.044,inactive: -0.027,–,inactive: 0,inactive: 0.078
SMIM20 isoform 2 (UniProt Q8N5G0),inactive: 0.069,inactive: 0.048,inactive: -0.033,active: 0.483,–,inactive: -0.065,inactive: 0.007,–,inactive: 0.051,inactive: 0.002
SNX5 (UniProt Q9Y5X3),inactive: -0.136,inactive: -0.129,inactive: 0.076,inactive: 0.05,–,inactive: -0.099,inactive: 0.027,–,inactive: -0.001,active: -0.289
SNX11 (UniProt Q9Y5W9),inactive: -0.167,inactive: -0.324,inactive: 0.066,inactive: -0.031,–,inactive: -0.022,inactive: -0.024,–,inactive: 0.167,active: -0.646
SMPD4 isoform 4 (UniProt Q9NXE4),inactive: -0.067,inactive: -0.076,inactive: 0.068,inactive: -0.008,–,inactive: -0.081,inactive: 0.036,–,inactive: -0.075,active: -0.32

# Two records picked at random from those above:
Target,log2 fold change [1],log2 fold change (volasertib),log2 fold change [2],log2 fold change (epoxomicin),log2 fold change [3],log2 fold change [4],log2 fold change [5],log2 fold change (rosiglitazone),log2 fold change [6],log2 fold change [7]
SP100 isoform 4 (UniProt P23497),inactive: -0.021,inactive: -0.065,inactive: 0.012,inactive: -0.006,–,inactive: 0.056,inactive: -0.045,–,inactive: -0.059,inactive: -0.064
SMARCE1 (UniProt Q969G3),inactive: -0.006,inactive: -0.125,inactive: 0.087,inactive: -0.033,–,inactive: 0.053,inactive: -0.036,–,inactive: 0.058,inactive: -0.045

# (list continues)

Target,log2 fold change [1],log2 fold change (volasertib),log2 fold change [2],log2 fold change (epoxomicin),log2 fold change [3],log2 fold change [4],log2 fold change [5],log2 fold change (rosiglitazone),log2 fold change [6],log2 fold change [7]
SMC5 (UniProt Q8IY18),inactive: 0.042,inactive: 0.054,inactive: -0.009,inactive: 0.018,–,inactive: -0.025,inactive: 0.033,–,inactive: 0.005,inactive: 0.037
SNX3 (UniProt O60493),inactive: -0.071,inactive: -0.147,inactive: 0.107,inactive: -0.033,–,inactive: 0.057,inactive: 0.077,–,inactive: 0.116,inactive: -0.319
SMAP (UniProt O00193),inactive: -0.024,inactive: 0.023,inactive: -0.043,inactive: 0.06,–,inactive: 0.014,inactive: -0.011,–,inactive: -0.088,inactive: -0.045
SLC9A6 isoform 2 (UniProt Q92581),inactive: 0.047,inactive: -0.081,inactive: 0.009,inactive: -0.013,–,inactive: -0.003,inactive: -0.026,–,inactive: -0.039,inactive: -0.071
SNRNP40 (UniProt Q96DI7),inactive: 0.067,inactive: 0.059,inactive: 0.026,inactive: -0.05,–,inactive: -0.033,inactive: -0.012,–,inactive: -0.029,active: 0.261
SNRPB2 (UniProt P08579),inactive: 0.176,inactive: 0.174,inactive: -0.069,inactive: -0.05,–,inactive: 0.069,inactive: -0.063,–,inactive: -0.008,inactive: 0.098
SNX12 isoform 1 (UniProt Q9UMY4),inactive: -0.124,active: -0.252,inactive: 0.069,inactive: 0.028,–,inactive: 0.043,inactive: -0.012,–,inactive: 0.045,active: -0.275
SMAD2 (UniProt Q15796),inactive: -0.067,active: -0.347,inactive: 0.065,inactive: 0.11,–,inactive: -0.014,inactive: 0.014,–,inactive: -0.158,inactive: -0.018
SNUPN (UniProt O95149),inactive: -0.133,active: -0.296,inactive: 0.014,inactive: -0.013,–,inactive: -0.076,inactive: 0.003,–,inactive: -0.01,inactive: -0.004
SMCHD1 (UniProt A6NHR9),inactive: 0.009,inactive: -0.326,inactive: 0.098,inactive: -0.189,–,inactive: -0.085,inactive: 0.032,–,inactive: -0.023,inactive: -0.144
SNX1 (UniProt Q13596),inactive: -0.135,inactive: -0.113,inactive: 0.096,inactive: 0.037,–,inactive: -0.107,inactive: 0.003,–,inactive: -0.029,active: -0.605
SMARCA5 (UniProt O60264),inactive: -0.242,inactive: -0.333,inactive: 0.045,inactive: 0.092,–,inactive: -0.06,inactive: 0.053,–,inactive: 0.121,inactive: 0.076
SP1 (UniProt P08047),inactive: 0.047,inactive: 0.102,inactive: 0,inactive: -0.032,–,inactive: -0.003,inactive: -0.042,–,inactive: 0.006,inactive: -0.063
SMAD9 (UniProt O15198),inactive: 0.059,active: -0.417,inactive: -0.137,inactive: 0.026,–,inactive: 0.035,inactive: 0.043,–,inactive: -0.087,inactive: -0.261
SLIRP (UniProt Q9GZT3),inactive: 0.05,inactive: 0.343,inactive: -0.093,inactive: 0.302,–,inactive: 0.02,inactive: 0.08,–,inactive: 0.092,inactive: 0.06
SNRNP27 (UniProt Q8WVK2),inactive: 0.029,inactive: 0.014,inactive: -0.08,inactive: 0.01,–,inactive: 0.038,inactive: 0.005,–,inactive: 0.051,inactive: -0.032
SNRPD3 (UniProt P62318),inactive: 0.194,inactive: 0.134,inactive: -0.058,inactive: -0.037,–,inactive: 0.058,inactive: -0.07,–,inactive: 0.001,inactive: 0.198
SMARCA2 (UniProt P51531),inactive: 0.162,–,inactive: -0.131,–,inactive: 0.01,inactive: 0.053,–,inactive: -0.041,–,inactive: 0.062
